Test results: the supplement of paper PMC7666118
This is one part of the list.

Chains of the proteins cited; added tags and fusions are not shown. Lines headed by an entry give the natural chain unless they say otherwise; changes in a name come on top.
UniProt Q9NZJ7, whole entry: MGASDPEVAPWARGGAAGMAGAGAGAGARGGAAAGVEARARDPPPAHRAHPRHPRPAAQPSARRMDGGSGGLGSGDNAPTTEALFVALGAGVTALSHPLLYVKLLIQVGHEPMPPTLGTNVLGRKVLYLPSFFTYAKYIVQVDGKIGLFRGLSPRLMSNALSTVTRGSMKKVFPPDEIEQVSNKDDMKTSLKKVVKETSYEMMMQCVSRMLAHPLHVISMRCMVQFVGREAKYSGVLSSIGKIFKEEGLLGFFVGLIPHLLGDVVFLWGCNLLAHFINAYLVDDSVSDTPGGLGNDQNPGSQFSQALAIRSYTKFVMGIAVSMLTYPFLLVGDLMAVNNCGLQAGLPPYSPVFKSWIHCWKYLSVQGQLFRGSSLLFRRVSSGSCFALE
UniProt O95169, whole entry: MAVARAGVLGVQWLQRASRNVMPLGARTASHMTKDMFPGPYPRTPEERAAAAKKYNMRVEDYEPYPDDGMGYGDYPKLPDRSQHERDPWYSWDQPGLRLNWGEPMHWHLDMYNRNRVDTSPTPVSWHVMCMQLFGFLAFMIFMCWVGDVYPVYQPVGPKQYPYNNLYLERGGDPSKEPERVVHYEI
UniProt Q9UHQ1: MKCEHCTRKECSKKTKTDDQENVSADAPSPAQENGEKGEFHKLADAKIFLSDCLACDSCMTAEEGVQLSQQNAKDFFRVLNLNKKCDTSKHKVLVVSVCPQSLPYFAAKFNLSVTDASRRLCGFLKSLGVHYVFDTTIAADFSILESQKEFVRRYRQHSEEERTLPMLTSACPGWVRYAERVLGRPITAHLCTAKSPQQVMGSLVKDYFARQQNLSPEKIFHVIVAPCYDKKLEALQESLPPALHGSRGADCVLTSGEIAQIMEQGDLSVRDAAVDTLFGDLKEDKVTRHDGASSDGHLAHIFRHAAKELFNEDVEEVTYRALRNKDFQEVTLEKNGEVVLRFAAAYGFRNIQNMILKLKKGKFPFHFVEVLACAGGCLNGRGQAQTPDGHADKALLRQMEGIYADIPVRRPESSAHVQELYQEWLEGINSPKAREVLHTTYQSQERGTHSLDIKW
UniProt Q99417: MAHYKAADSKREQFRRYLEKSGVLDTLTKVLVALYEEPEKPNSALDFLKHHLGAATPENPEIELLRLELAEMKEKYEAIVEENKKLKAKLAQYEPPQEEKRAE
UniProt O00483, whole entry: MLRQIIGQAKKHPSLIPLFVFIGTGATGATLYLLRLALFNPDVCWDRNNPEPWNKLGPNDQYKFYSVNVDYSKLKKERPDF
UniProt Q969V3: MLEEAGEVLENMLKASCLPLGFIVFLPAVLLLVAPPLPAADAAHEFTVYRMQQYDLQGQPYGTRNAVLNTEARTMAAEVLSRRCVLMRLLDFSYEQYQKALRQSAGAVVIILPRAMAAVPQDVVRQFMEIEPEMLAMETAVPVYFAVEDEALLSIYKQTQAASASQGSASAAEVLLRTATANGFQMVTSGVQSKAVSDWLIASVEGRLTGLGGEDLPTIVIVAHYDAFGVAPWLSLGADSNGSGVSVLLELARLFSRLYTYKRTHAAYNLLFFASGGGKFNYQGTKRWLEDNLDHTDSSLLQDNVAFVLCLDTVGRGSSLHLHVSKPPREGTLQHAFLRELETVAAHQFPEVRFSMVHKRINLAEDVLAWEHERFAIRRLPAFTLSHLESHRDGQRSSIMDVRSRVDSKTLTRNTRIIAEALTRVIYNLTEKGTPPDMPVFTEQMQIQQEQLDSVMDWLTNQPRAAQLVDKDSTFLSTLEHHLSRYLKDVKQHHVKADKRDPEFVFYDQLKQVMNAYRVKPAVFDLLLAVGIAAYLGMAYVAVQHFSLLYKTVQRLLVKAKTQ
UniProt P55769: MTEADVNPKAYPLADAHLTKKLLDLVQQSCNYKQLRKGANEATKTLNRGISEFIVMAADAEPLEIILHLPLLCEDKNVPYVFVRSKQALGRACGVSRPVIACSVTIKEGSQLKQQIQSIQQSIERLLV
UniProt O75592: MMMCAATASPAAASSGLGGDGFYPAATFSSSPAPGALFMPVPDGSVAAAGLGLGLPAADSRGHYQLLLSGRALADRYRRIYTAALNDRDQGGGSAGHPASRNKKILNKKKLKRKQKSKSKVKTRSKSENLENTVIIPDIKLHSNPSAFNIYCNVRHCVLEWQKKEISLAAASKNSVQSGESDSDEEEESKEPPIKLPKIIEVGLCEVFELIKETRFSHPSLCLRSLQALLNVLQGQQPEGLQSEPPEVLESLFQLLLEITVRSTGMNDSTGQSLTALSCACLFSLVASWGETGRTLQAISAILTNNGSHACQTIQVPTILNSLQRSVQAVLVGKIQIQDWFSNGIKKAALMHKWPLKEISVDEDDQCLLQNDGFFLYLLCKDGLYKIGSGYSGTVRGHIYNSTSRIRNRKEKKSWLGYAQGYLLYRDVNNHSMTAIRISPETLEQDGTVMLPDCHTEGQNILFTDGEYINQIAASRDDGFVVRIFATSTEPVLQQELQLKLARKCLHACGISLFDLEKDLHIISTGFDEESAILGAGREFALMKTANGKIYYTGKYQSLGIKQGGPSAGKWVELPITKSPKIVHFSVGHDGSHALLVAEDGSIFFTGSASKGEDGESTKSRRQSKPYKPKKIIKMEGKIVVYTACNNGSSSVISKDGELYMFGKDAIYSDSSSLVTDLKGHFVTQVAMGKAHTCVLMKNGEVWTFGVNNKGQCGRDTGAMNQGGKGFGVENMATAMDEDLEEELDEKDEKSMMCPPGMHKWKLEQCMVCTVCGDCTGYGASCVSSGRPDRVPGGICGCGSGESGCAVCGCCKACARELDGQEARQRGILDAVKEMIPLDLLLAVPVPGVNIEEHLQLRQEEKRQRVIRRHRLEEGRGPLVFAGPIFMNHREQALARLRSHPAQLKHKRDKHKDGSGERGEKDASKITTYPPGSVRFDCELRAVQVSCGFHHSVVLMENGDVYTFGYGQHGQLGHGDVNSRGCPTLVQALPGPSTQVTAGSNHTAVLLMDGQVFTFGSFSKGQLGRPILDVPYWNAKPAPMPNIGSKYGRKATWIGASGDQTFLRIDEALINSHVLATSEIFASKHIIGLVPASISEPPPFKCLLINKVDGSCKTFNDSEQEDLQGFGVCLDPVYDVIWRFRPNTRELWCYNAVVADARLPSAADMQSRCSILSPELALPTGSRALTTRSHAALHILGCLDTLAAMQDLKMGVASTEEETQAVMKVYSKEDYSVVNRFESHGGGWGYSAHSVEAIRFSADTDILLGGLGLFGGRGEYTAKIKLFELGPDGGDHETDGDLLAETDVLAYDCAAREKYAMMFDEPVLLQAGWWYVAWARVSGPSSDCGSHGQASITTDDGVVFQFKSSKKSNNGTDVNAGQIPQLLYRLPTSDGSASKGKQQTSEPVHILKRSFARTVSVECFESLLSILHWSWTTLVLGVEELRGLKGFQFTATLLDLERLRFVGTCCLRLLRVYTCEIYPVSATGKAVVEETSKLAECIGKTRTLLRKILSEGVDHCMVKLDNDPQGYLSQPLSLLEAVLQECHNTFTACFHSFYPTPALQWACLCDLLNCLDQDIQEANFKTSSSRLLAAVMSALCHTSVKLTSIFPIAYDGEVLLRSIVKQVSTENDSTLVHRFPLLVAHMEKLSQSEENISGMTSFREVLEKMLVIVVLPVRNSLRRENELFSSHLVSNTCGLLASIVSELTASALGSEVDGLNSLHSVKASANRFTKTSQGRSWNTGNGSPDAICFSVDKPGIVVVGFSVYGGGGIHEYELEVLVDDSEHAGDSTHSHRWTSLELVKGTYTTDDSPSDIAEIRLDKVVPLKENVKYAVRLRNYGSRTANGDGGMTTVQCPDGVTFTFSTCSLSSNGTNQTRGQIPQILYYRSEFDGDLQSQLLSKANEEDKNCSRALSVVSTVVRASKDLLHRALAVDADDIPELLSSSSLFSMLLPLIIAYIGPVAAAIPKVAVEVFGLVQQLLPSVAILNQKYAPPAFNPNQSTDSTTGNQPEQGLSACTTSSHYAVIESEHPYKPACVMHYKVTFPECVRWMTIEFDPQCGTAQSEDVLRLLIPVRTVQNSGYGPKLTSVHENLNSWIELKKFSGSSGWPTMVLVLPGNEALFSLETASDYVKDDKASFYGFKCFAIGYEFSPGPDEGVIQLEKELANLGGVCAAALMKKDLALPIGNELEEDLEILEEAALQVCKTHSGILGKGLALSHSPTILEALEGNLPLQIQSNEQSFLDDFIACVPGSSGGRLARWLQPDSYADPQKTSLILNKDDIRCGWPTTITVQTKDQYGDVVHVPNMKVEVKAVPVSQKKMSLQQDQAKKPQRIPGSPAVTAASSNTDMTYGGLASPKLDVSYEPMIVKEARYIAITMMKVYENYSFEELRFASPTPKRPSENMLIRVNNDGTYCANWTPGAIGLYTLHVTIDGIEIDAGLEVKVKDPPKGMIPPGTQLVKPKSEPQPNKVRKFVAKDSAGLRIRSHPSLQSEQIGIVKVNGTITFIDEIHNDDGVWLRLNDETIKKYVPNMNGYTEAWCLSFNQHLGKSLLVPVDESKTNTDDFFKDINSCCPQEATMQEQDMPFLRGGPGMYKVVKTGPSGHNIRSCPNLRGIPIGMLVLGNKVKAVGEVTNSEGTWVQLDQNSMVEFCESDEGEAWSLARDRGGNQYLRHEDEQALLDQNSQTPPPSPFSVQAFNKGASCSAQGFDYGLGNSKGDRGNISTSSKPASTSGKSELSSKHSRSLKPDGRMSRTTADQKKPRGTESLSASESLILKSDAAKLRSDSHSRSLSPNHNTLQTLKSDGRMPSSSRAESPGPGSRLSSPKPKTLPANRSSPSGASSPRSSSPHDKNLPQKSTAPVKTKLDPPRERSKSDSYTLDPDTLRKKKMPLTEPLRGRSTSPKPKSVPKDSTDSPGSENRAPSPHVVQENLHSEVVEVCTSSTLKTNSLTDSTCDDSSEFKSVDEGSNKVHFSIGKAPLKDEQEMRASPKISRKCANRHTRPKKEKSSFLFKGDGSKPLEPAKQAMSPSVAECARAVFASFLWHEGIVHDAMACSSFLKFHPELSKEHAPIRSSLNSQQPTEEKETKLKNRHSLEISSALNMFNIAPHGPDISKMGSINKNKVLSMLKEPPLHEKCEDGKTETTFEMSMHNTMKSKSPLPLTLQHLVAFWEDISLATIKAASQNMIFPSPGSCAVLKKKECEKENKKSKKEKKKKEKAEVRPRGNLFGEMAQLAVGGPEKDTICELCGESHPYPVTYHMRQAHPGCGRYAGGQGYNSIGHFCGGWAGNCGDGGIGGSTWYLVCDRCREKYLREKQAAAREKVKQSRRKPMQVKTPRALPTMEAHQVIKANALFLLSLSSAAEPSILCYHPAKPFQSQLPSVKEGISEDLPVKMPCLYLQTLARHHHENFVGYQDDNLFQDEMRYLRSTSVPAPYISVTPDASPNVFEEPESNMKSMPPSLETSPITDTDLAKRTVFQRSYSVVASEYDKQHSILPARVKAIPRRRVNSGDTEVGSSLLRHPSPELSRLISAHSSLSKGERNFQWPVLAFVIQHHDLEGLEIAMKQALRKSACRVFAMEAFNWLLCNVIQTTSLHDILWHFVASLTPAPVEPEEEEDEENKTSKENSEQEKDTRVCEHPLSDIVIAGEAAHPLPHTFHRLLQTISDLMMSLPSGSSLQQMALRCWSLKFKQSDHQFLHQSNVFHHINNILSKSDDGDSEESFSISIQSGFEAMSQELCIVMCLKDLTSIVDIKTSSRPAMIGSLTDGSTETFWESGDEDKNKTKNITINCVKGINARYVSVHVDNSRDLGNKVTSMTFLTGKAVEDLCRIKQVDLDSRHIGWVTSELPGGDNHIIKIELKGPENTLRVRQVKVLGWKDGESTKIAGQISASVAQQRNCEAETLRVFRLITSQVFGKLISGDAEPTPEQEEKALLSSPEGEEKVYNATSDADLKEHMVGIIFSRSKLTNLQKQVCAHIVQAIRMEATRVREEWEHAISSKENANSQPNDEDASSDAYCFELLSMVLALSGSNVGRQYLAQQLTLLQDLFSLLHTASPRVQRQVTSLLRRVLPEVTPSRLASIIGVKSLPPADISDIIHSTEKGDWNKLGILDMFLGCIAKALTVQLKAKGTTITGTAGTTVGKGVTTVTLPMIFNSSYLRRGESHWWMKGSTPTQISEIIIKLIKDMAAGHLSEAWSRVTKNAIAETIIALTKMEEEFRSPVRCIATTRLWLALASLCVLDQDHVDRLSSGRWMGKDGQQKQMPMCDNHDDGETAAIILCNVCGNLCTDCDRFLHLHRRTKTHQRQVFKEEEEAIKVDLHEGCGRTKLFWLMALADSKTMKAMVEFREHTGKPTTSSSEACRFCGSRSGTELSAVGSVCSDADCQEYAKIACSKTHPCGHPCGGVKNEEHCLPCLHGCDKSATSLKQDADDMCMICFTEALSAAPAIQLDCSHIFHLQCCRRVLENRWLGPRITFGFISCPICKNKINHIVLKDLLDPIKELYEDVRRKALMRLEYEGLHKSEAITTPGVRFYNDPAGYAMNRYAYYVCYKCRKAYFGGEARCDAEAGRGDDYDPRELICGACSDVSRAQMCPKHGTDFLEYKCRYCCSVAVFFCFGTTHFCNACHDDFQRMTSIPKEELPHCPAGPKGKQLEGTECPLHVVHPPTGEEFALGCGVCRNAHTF

The targets below were run with COc1ccc(Cn2ccc3ccc(C(=O)NO)cc32)cc1 (assay: dose-dependent thermal stabilisation call (2D-TPP, DLPTP, 10% FDR) (binary (1 = stabilised)); higher = stabilised by the compound). Conditions: system: HL-60 intact cells; concentration range 0.04-10 µM.

How did the “dose-dependent thermal stabilisation call” value turn out when MYBBP1A (UniProt Q9BQG0) was run?
Its value is inactive: 0.

NAP1L4 (UniProt Q99733) was tested. Which “dose-dependent thermal stabilisation call” value did it give?
The value was inactive: 0.

NPTN (UniProt Q9Y639) was tested. Which “dose-dependent thermal stabilisation call” value did it give?
Its value is inactive: 0.

For NDUFB9 (UniProt Q9Y6M9), which “dose-dependent thermal stabilisation call” value is on record?
The value was inactive: 0.

For N4BP2 (UniProt Q86UW6), which “dose-dependent thermal stabilisation call” value is on record?
The value was inactive: 0.

NIBP (UniProt Q96Q05) was tested. Which “dose-dependent thermal stabilisation call” value did it give?
Its value is inactive: 0.

How did the “dose-dependent thermal stabilisation call” value turn out when MSN (UniProt P26038) was run?
Its value is inactive: 0.

With NOP5/NOP58 as the target, how does the “dose-dependent thermal stabilisation call” value read?
The value was inactive: 0.

How did the “dose-dependent thermal stabilisation call” value turn out when NME3 (UniProt Q13232) was run?
Its value is inactive: 0.

With NCK1 (UniProt P16333) as the target, how does the “dose-dependent thermal stabilisation call” value read?
Its value is inactive: 0.

MTHFR (UniProt P42898) was tested. Which “dose-dependent thermal stabilisation call” value did it give?
The value was inactive: 0.

With NMT1 (UniProt P30419) as the target, how does the “dose-dependent thermal stabilisation call” value read?
The value was inactive: 0.

How did the “dose-dependent thermal stabilisation call” value turn out when MTCH1 (UniProt Q9NZJ7) was run?
The value was inactive: 0.

With NCOR1 (UniProt O75376) as the target, how does the “dose-dependent thermal stabilisation call” value read?
The value was inactive: 0.

For MTRR (UniProt Q9UBK8), which “dose-dependent thermal stabilisation call” value is on record?
The value was inactive: 0.

With NCAPD3 (UniProt P42695) as the target, how does the “dose-dependent thermal stabilisation call” value read?
Its value is inactive: 0.

How did the “dose-dependent thermal stabilisation call” value turn out when NDUFB8 (UniProt O95169) was run?
Its value is inactive: 0.

How did the “dose-dependent thermal stabilisation call” value turn out when NCF1B (UniProt A6NI72) was run?
The value was inactive: 0.

NARF (UniProt Q9UHQ1) was tested. Which “dose-dependent thermal stabilisation call” value did it give?
The value was inactive: 0.

How did the “dose-dependent thermal stabilisation call” value turn out when NAT5 was run?
Its value is inactive: 0.

For MTMR3 (UniProt Q13615), which “dose-dependent thermal stabilisation call” value is on record?
Its value is inactive: 0.

MTERFD1 (UniProt Q96E29) was tested. Which “dose-dependent thermal stabilisation call” value did it give?
The value was inactive: 0.

For NCOA7 (UniProt Q8NI08), which “dose-dependent thermal stabilisation call” value is on record?
Its value is inactive: 0.

How did the “dose-dependent thermal stabilisation call” value turn out when MYCBP (UniProt Q99417) was run?
Its value is inactive: 0.

For MSRB3 (UniProt Q8IXL7), which “dose-dependent thermal stabilisation call” value is on record?
The value was inactive: 0.

NFYA (UniProt P23511) was tested. Which “dose-dependent thermal stabilisation call” value did it give?
Its value is inactive: 0.

Which “dose-dependent thermal stabilisation call” value does the source give for NDUFA4 (UniProt O00483) here?
Its value is inactive: 0.

Which “dose-dependent thermal stabilisation call” value does the source give for NCLN (UniProt Q969V3) here?
The value was inactive: 0.

With NDUFA7 (UniProt O95182) as the target, how does the “dose-dependent thermal stabilisation call” value read?
The value was inactive: 0.

With NEK3 (UniProt P51956) as the target, how does the “dose-dependent thermal stabilisation call” value read?
The value was inactive: 0.

For NFS1 (UniProt Q9Y697), which “dose-dependent thermal stabilisation call” value is on record?
The value was inactive: 0.

How did the “dose-dependent thermal stabilisation call” value turn out when NHP2L1 (UniProt P55769) was run?
The value was inactive: 0.

NAPRT1 (UniProt Q6XQN6) was tested. Which “dose-dependent thermal stabilisation call” value did it give?
Its value is inactive: 0.

NPEPL1 (UniProt Q8NDH3) was tested. Which “dose-dependent thermal stabilisation call” value did it give?
Its value is inactive: 0.

How did the “dose-dependent thermal stabilisation call” value turn out when MYCBP2 (UniProt O75592) was run?
Its value is inactive: 0.

NADSYN1 (UniProt Q6IA69) was tested. Which “dose-dependent thermal stabilisation call” value did it give?
The value was inactive: 0.

MTA2 (UniProt O94776) was tested. Which “dose-dependent thermal stabilisation call” value did it give?
The value was inactive: 0.
